# Melanoma cell counts after drug treatment

From a melanoma drug combination screen (doi:10.1371/journal.pone.0140310); values rounded.

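The test systems are human melanoma cell lines, treated with a pair of drugs for 72 h and then stained and imaged. Values are the number of DAPI-stained nuclei as a percentage of the DMSO control: 100 is no effect, lower means fewer cells. Concentrations were fixed for each drug; these are the lower of two levels, a fifth of the higher. The file gives one value for each pair and line, without errors, so small differences may be noise.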
An unselected part of the screen is shown.

Drug key:
pioglitazone: CCc1ccc(CCOc2ccc(CC3SC(=O)NC3=O)cc2)nc1 (configuration not stated) at 2000 nM
dasatinib: Cc1nc(Nc2ncc(C(=O)Nc3c(C)cccc3Cl)s2)cc(N2CCN(CCO)CC2)n1 at 4 nM
GW0742: Cc1cc(SCc2sc(-c3ccc(C(F)(F)F)c(F)c3)nc2C)ccc1OCC(=O)O at 2000 nM
KU-55933: O=c1cc(-c2cccc3c2Sc2ccccc2S3)oc(N2CCOCC2)c1 at 1000 nM
bortezomib: CC(C)C[C@H](NC(=O)[C@H](Cc1ccccc1)NC(=O)c1cnccn1)B(O)O at 1 nM
tamatinib: COc1cc(Nc2ncc(F)c(Nc3ccc4c(n3)NC(=O)C(C)(C)O4)n2)cc(OC)c1OC at 400 nM
ZM336372: Cc1ccc(NC(=O)c2cccc(N(C)C)c2)cc1NC(=O)c1ccc(O)cc1 at 2000 nM
SNS-314: O=C(Nc1cccc(Cl)c1)Nc1ncc(CCNc2ncnc3ccsc23)s1 at 0.8 nM
PD173074: CCN(CC)CCCCNc1ncc2cc(-c3cc(OC)cc(OC)c3)c(NC(=O)NC(C)(C)C)nc2n1 at 100 nM

| Pair | LOX IMVI |
|---|---|
| dasatinib and KU-55933 | 55.4 |
| PD173074 and SNS-314 | 108 |
| KU-55933 and SNS-314 | 76.0 |
| PD173074 and pioglitazone | 103 |
| PD173074 and tamatinib | 78.4 |
| pioglitazone and dasatinib | 70.0 |
| SNS-314 and pioglitazone | 102 |
| ZM336372 and PD173074 | 123 |
| dasatinib and GW0742 | 36.6 |
| KU-55933 and tamatinib | 91.9 |
| GW0742 and tamatinib | 95.1 |
| GW0742 and ZM336372 | 68.0 |
| PD173074 and GW0742 | 110 |
| ZM336372 and KU-55933 | 90.7 |
| pioglitazone and tamatinib | 63.5 |
| KU-55933 and pioglitazone | 105 |
| tamatinib and bortezomib | 51.6 |
| bortezomib and KU-55933 | 83.7 |
| PD173074 and dasatinib | 90.9 |
| bortezomib and ZM336372 | 69.0 |
| ZM336372 and pioglitazone | 120 |

The last 2 entries again:

Pair,LOX IMVI
bortezomib and ZM336372,69.0
ZM336372 and pioglitazone,120